Measurements taken from the supplement of paper PMC10849652.
Some of the results follow.

Amino acid sequences for entries named in this document (tags omitted). A change or cut given only in a name is not applied to a line headed by its entry.
UniProt O95279: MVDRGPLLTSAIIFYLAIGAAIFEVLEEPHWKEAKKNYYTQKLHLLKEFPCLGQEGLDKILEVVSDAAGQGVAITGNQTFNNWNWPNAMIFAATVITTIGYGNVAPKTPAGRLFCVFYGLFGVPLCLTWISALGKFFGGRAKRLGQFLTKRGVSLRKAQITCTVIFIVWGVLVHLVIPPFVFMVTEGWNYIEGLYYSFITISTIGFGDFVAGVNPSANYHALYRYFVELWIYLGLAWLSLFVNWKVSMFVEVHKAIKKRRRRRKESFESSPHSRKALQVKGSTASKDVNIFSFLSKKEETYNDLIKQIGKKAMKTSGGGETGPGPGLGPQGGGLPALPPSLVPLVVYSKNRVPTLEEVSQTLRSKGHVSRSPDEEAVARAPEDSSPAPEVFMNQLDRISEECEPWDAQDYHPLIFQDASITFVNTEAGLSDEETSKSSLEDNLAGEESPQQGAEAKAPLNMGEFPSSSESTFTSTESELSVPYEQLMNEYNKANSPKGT
UniProt P51617, whole entry, looked up: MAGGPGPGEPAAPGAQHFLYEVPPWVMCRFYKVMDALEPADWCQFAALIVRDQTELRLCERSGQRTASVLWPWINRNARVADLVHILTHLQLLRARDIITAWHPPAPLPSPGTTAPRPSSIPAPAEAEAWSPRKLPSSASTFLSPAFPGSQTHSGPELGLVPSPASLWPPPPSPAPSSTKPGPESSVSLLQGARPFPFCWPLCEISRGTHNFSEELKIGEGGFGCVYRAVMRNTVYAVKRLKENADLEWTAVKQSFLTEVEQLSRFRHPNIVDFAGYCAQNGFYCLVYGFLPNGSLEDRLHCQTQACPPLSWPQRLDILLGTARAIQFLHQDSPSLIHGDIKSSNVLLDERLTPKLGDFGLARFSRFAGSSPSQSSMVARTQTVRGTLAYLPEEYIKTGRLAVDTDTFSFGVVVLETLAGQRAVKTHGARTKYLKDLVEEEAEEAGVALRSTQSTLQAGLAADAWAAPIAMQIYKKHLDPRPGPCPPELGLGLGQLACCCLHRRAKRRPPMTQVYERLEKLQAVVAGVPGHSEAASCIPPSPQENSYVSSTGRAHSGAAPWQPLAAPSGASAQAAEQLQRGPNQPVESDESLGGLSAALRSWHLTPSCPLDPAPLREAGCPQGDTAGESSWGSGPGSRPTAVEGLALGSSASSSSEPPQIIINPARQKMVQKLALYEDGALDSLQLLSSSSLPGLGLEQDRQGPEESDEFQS
UniProt Q9NXV2: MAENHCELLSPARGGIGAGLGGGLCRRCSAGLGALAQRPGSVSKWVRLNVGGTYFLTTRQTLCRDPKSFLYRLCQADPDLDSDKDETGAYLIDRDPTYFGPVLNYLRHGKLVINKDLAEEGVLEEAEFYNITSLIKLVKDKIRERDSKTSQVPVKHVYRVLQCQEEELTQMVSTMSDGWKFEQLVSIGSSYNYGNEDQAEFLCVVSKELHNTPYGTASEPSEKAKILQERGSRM
UniProt Q4G0X4: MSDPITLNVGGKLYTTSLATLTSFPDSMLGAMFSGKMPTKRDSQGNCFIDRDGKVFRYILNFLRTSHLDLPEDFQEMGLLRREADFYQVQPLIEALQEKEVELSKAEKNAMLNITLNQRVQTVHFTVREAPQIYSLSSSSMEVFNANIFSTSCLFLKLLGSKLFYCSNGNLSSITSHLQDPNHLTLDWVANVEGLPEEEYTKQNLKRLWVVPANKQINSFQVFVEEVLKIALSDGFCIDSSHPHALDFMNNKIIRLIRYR
UniProt Q9Y2K7: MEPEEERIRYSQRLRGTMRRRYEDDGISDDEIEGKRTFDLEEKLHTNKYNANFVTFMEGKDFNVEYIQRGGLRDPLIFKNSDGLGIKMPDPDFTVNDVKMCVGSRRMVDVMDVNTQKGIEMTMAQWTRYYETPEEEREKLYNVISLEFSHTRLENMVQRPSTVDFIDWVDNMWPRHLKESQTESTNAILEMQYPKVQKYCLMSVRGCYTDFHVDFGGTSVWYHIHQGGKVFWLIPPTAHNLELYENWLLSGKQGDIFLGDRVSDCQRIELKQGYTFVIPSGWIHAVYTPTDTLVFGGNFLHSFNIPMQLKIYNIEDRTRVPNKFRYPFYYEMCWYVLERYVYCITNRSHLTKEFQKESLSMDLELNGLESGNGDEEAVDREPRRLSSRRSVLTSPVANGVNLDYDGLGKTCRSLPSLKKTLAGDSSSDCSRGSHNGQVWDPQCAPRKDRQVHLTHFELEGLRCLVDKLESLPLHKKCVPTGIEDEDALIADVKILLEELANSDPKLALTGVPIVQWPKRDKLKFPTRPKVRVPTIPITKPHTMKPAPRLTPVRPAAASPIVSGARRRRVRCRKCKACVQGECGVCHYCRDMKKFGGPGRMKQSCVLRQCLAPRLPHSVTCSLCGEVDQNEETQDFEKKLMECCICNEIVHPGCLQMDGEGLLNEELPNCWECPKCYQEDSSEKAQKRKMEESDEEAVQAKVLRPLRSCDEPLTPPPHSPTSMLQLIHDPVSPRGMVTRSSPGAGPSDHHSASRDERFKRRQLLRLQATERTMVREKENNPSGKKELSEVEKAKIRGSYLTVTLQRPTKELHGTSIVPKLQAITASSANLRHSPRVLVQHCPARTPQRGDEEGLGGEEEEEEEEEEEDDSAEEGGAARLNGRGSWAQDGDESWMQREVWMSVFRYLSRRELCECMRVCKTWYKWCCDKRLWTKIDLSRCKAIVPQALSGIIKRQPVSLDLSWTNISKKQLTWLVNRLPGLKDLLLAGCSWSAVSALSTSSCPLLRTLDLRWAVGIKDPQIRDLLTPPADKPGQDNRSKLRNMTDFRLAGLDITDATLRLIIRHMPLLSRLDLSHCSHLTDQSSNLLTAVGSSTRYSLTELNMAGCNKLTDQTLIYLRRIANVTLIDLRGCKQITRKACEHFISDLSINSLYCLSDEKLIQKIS
UniProt Q06033: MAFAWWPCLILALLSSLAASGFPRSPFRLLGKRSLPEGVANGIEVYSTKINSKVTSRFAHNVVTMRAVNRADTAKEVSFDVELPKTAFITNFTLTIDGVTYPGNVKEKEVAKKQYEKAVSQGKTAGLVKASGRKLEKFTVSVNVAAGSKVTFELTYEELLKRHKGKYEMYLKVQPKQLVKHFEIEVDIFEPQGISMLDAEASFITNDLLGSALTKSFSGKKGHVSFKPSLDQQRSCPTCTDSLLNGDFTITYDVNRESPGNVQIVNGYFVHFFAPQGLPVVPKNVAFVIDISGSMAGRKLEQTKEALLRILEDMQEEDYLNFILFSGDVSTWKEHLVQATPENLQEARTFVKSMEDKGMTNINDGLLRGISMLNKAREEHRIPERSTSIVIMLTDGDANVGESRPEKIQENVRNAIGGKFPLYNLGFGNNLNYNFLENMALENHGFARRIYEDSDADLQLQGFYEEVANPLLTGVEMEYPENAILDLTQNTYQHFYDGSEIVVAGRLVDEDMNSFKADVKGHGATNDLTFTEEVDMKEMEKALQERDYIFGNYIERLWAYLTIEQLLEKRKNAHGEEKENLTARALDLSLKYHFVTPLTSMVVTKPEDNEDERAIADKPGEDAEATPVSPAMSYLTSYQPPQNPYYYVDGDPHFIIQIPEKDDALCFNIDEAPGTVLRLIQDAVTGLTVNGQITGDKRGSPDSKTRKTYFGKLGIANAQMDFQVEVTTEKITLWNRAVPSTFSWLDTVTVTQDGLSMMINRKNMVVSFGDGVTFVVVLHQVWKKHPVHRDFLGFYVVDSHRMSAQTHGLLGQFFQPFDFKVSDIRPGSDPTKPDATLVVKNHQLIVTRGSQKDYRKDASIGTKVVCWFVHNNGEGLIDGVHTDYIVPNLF
UniProt Q8TB96: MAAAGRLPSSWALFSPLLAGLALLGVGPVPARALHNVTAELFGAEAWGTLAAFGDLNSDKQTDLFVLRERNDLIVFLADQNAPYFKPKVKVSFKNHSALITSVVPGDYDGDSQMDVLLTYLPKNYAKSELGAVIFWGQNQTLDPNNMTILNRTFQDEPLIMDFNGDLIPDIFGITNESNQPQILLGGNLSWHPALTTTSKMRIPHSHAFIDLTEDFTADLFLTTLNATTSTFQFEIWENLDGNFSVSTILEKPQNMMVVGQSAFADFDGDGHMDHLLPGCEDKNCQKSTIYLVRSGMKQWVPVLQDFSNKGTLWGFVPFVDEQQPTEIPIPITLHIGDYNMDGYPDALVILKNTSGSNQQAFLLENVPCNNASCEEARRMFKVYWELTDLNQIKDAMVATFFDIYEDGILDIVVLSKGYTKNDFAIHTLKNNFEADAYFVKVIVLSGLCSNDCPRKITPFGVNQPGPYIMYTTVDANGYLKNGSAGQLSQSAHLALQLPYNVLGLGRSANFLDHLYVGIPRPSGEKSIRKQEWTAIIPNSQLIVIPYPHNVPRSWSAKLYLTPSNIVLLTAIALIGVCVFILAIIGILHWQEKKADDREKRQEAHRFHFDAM
UniProt Q9H9V9: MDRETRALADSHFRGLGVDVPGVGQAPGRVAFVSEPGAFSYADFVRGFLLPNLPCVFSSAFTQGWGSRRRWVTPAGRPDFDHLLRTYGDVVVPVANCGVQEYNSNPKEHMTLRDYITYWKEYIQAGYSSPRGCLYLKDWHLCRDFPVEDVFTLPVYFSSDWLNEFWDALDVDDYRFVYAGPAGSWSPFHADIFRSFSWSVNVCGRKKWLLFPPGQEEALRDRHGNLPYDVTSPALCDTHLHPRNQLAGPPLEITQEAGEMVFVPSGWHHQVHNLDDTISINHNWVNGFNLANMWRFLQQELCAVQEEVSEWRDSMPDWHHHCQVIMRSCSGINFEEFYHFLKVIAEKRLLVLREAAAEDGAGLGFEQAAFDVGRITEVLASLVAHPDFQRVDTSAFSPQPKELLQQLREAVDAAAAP
UniProt Q9UK76: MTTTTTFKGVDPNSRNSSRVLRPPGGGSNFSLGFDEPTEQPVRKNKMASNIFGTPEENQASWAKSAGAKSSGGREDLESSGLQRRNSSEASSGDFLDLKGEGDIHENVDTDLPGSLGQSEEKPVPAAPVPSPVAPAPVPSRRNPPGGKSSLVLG
UniProt O14713: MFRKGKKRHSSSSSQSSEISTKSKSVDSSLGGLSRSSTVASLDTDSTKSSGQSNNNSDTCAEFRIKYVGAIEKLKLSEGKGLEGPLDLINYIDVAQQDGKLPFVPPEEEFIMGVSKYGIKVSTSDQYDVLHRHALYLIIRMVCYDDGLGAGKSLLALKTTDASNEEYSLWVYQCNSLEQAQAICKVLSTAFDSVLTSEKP
UniProt Q14681: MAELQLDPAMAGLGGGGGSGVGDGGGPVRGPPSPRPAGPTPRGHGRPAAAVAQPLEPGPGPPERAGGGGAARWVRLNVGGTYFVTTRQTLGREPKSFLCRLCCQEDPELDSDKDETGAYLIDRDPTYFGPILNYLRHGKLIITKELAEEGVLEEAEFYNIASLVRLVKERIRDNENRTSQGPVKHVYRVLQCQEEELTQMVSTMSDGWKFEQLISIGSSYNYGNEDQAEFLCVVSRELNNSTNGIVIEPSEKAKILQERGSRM
UniProt P05161, whole entry, looked up: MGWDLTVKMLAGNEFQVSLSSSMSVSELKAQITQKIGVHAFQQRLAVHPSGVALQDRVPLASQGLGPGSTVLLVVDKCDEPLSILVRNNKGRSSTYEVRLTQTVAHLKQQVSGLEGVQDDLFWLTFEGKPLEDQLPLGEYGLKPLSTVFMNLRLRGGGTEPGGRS
UniProt Q6DN90: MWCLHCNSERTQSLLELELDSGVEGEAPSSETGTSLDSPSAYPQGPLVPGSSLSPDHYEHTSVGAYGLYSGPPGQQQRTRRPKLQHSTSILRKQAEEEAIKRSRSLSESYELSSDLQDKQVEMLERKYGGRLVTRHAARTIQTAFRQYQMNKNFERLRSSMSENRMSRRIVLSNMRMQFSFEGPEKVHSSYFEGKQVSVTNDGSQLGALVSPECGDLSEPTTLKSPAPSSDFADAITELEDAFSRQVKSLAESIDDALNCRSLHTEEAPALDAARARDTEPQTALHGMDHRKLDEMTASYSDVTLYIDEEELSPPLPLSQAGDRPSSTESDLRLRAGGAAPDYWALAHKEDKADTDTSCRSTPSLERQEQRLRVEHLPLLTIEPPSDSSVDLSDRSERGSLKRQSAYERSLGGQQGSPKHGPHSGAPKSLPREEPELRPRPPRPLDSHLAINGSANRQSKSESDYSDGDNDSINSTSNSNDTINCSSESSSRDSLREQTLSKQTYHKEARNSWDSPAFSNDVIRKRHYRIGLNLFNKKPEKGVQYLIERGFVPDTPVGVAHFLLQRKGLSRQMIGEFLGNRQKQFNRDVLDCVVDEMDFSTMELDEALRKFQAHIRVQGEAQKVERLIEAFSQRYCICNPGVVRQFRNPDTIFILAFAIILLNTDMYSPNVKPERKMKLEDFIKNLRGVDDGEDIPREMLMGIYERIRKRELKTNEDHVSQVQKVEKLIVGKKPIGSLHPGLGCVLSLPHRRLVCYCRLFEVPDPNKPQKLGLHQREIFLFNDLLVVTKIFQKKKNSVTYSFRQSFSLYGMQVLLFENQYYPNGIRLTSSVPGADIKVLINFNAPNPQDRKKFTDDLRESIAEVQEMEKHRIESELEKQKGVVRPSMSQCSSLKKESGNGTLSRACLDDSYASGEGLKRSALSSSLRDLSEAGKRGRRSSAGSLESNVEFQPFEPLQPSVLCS

Assays:
Assay in all cases: log2 fold change, soluble protein after heating vs DMSO (PISA); higher = thermal stabilisation; K562 lysate, 10 uM; active = over 0.2 and 3.5 SD of the protein, either way, in both replicates (recomputed)
[1] = compound: C1=CC=C(C=C1)[C@H](COC2=CC3=C(C=C2)NC(=O)N3)NC(=O)C4=CC=CN(C4=O)CC5=CC(=C(C=C5)F)F
Method in brief: (§1)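 Soluble protein was defined as the supernatant remaining after 21,000xg for 90 min, following pooling of heated aliquots and adjustment to 0.5% NP-40 at 4°C. Before that, crude K562 extract at 1 mg/mL protein in PBS pH 7.4 with 1 mM MgCl2 was treated with 10 μM compound for 30 min and heated for 3 min across 48°C-58°C. Quantification used TMTpro 16plex LC-MS/MS with channel sums equalised, and values are log-two fold changes in thermal stability relative to solvent controls from duplicates.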

[2] = compound: CC1=C(SC2=C1C(=N[C@H](C3=NN=C(N32)C)CC(=O)N)C4=CC=C(C=C4)Cl)C
Method in brief: as §1

[3] = compound: CC1=C2C(=CC=C1)N=C(N(C2=O)C3=CC=CC=C3C)CN4C=NC5=C(N=CN=C54)N
Method in brief: as §1

[4] = compound: Cc1sc2c(c1C)C(c1ccc(Cl)cc1)=N[C@@H](CC(=O)OC(C)(C)C)c1nnc(C)n1-2
Method in brief: as §1

[5] = compound: c1ccc([C@@H]2C[C@H]2NC2CCNCC2)cc1
Method in brief: as §1

Measured: log2 fold change

KCNK5 (UniProt O95279)
inactive: [1] 0.157 | [2] 0 | [3] 0.296 | [4] -0.394 | [5] -0.316

KDELR1 (UniProt P24390)
inactive: [1] -0.155 | [2] -0.179 | [3] 0.02 | [4] 0.007 | [5] -0.131

IRAK1 (UniProt P51617)
inactive: [1] -0.146 | [2] -0.028 | [3] -0.001 | [4] 0.004 | [5] 0.026

KCTD5 (UniProt Q9NXV2)
inactive: [1] 0.104 | [2] -0.047 | [3] 0.016 | [4] -0.111 | [5] -0.033

IQCB1 (UniProt Q15051)
inactive: [1] -0.021 | [2] -0.002 | [3] -0.112 | [4] -0.057 | [5] 0.054

KAT14 (UniProt Q9H8E8)
inactive: [1] 0.109 | [2] 0.037 | [3] 0.107

ITGA5 (UniProt P08648)
inactive: [1] 0.004 | [2] 0.01 | [3] 0.009 | [4] -0.011 | [5] -0.013

KCTD21 (UniProt Q4G0X4)
inactive: [1] -0.15 | [2] -0.086 | [3] 0.137

KDM2A (UniProt Q9Y2K7)
inactive: [1] -0.044 | [2] 0.023 | [3] 0.018 | [4] 0.033 | [5] 0.088

KBTBD7 (UniProt Q8WVZ9)
inactive: [1] -0.061 | [2] 0.034 | [3] 0.022 | [4] -0.033

IREB2 (UniProt P48200)
inactive: [1] 0.011 | [2] 0.022 | [3] -0.002 | [4] 0.015 | [5] 0

ITIH3 (UniProt Q06033)
inactive: [1] -0.014 | [2] 0.107

ITPA (UniProt Q9BY32)
inactive: [1] -0.016 | [2] 0.011 | [3] -0.031 | [4] -0.027 | [5] -0.135

ITIH4 (UniProt Q14624)
inactive: [1] -0.002 | [2] -0.011 | [3] -0.117 | [4] -0.237 | [5] -0.105

KCTD10 (UniProt Q9H3F6)
inactive: [1] 0.049 | [2] 0.018 | [3] -0.036 | [4] -0.001 | [5] 0.057

IQCD (UniProt Q96DY2)
inactive: [1] -0.113 | [2] 0

ITFG1 (UniProt Q8TB96)
inactive: [1] -0.088 | [2] 0.018 | [3] 0.034 | [4] 0.001 | [5] 0.017

IP6K1 (UniProt Q92551)
inactive: [1] 0.013 | [2] 0.113 | [3] -0.068 | [4] 0.01 | [5] -0.165

JMJD4 (UniProt Q9H9V9)
inactive: [1] 0.057 | [2] -0.067 | [3] -0.014 | [4] -0.093 | [5] 0.025

IPO11 isoform 2 (UniProt Q9UI26)
inactive: [1] 0.033 | [2] -0.003 | [3] 0.014 | [4] -0.014 | [5] 0.017

JPT1 (UniProt Q9UK76)
inactive: [1] 0.057 | [2] -0.065 | [3] -0.026 | [4] -0.057 | [5] -0.018

KCNAB2 (UniProt Q13303)
inactive: [1] 0.024 | [2] -0.001 | [3] -0.002 | [4] 0.092 | [5] -0.044

INTS2 (UniProt Q9H0H0)
inactive: [1] -0.024 | [2] 0.049 | [3] -0.042 | [4] 0.041 | [5] 0.065

JTB (UniProt O76095)
inactive: [1] 0.084 | [2] 0.134 | [3] -0.034 | [4] 0.016

Reprinted at random: two records from the list, in no set order.
IPO11 isoform 2 (UniProt Q9UI26)
inactive: [1] 0.033 | [2] -0.003 | [3] 0.014 | [4] -0.014 | [5] 0.017

KCNAB2 (UniProt Q13303)
inactive: [1] 0.024 | [2] -0.001 | [3] -0.002 | [4] 0.092 | [5] -0.044

(cont.)

ITGB1BP1 (UniProt O14713)
inactive: [1] -0.035 | [2] -0.003 | [3] -0.066 | [4] -0.155 | [5] -0.063

IQGAP1 (UniProt P46940)
inactive: [1] -0.004 | [2] 0.008 | [3] -0.028 | [4] -0.015 | [5] 0.035

KCTD2 (UniProt Q14681)
inactive: [1] 0.065 | [2] -0.072 | [3] -0.032 | [4] 0.099 | [5] 0.278

ISG15 (UniProt P05161)
inactive: [1] 0.007 | [2] 0.04 | [3] -0.02 | [4] -0.098 | [5] -0.032

IQSEC1 (UniProt Q6DN90)
inactive: [1] -0.018 | [2] 0.057 | [3] -0.011 | [4] 0.068 | [5] 0.032
